From patent publication US12077566
Results are given in words; binding and its absence hold for the method and conditions named. Sequences can lack the tags named with a protein.

Target: PDGFR
Assay: immunofluorescence co-localization on cells

B1: recombinant immunoregulatory protein of Ganoderma lucidum (rLZ-8) (protein)
chain: MSDTALIFRLAWDVKKLSFDYTPNWGRGNPNNFIDTVTFPKVLTDKAYTYRVAVSGRNLGVKPSYAVESDGSQKVNFLEYNSGYGIADTNTIQVFVVDPDTNNDFIIAQWN
Question: With B1 as the binder, how does the binding read?
Answer: no binding
